Assay results as given in the supplement of paper PMC10849652.
This is one part of the list. Residues, ends and D or L forms follow the SMILES beside them. *: point of attachment. Cbz = O=C(OCc1ccccc1)*

Amino acid sequences for entries named in this document (tags omitted). A change or cut given only in a name is not applied to a line headed by its entry.
UniProt Q9UM13, whole entry, looked up: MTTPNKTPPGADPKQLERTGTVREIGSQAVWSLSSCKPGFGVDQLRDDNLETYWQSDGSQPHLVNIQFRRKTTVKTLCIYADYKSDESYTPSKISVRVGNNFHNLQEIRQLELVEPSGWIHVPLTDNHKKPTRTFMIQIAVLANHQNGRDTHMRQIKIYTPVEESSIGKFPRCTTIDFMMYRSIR
UniProt O94788: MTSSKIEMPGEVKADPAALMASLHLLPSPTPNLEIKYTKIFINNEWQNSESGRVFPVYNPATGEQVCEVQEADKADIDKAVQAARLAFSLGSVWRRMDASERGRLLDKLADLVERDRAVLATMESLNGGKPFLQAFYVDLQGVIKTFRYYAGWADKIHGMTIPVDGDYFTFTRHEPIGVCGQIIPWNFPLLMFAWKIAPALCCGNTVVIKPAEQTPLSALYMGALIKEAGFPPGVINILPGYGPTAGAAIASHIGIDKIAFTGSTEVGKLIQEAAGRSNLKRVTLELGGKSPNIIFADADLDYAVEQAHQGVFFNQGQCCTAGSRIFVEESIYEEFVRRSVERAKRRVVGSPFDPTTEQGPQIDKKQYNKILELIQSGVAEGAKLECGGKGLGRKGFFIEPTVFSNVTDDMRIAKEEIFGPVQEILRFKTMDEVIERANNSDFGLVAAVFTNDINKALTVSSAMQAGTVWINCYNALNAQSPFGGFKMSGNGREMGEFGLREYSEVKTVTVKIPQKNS
UniProt Q96HN2, whole entry, looked up: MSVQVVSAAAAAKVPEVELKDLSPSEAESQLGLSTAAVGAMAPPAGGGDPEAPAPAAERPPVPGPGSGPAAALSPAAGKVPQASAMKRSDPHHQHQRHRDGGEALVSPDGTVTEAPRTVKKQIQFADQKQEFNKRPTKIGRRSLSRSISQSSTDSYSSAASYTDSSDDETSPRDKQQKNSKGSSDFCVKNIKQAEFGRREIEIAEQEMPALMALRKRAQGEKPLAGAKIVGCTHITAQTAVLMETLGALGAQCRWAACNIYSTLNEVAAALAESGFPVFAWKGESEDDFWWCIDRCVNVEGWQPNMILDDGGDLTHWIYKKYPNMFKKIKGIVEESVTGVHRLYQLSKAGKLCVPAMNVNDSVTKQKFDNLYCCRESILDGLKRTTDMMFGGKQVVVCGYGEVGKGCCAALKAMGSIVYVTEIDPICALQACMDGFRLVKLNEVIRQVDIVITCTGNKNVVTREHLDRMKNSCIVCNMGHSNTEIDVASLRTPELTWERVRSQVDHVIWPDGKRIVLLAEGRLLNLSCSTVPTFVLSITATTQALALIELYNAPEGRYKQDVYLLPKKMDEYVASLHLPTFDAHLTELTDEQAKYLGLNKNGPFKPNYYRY
UniProt P14550: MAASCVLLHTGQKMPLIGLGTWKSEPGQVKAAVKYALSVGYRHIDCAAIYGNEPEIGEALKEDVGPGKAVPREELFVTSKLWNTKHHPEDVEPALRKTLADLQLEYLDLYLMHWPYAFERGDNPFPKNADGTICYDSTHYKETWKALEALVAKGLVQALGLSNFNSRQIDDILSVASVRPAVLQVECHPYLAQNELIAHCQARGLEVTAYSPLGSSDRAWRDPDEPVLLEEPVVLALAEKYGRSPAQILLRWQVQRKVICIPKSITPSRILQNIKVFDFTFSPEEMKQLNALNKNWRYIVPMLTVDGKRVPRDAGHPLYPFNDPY
UniProt Q6ULP2: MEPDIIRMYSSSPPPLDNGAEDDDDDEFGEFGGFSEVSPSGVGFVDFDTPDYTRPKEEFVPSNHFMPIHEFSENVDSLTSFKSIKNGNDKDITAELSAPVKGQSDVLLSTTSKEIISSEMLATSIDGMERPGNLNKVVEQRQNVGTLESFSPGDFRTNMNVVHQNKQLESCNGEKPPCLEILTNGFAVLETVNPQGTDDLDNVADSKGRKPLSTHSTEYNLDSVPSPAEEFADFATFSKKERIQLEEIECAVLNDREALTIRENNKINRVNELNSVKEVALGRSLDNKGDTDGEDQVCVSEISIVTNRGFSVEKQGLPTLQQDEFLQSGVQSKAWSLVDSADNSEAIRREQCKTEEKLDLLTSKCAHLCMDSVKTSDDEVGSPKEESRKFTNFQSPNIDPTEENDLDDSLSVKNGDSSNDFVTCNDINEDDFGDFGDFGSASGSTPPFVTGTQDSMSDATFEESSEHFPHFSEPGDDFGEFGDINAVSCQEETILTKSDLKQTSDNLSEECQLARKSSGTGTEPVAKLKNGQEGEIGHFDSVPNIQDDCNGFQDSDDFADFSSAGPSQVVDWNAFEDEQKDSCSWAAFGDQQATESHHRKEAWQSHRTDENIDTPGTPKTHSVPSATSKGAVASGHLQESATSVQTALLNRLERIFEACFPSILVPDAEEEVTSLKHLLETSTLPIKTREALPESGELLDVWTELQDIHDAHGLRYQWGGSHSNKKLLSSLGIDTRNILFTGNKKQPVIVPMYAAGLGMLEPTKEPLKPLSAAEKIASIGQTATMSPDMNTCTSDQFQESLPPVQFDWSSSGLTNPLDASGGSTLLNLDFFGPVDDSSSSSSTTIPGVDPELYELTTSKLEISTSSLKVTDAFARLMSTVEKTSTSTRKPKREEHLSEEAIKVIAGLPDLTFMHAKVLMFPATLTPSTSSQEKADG
UniProt P30520: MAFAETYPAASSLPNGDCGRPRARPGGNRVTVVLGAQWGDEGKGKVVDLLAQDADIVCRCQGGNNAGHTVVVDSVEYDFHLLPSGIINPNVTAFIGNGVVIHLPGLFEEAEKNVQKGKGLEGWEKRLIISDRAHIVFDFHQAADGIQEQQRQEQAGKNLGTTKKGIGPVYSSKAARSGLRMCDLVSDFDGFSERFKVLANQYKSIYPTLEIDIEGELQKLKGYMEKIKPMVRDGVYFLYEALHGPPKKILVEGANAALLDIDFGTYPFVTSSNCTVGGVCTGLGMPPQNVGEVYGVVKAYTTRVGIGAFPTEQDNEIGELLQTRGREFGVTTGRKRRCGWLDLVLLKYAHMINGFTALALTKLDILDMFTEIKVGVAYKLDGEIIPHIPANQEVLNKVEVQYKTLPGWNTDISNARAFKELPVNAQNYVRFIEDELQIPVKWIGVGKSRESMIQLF
UniProt O95433, whole entry, looked up: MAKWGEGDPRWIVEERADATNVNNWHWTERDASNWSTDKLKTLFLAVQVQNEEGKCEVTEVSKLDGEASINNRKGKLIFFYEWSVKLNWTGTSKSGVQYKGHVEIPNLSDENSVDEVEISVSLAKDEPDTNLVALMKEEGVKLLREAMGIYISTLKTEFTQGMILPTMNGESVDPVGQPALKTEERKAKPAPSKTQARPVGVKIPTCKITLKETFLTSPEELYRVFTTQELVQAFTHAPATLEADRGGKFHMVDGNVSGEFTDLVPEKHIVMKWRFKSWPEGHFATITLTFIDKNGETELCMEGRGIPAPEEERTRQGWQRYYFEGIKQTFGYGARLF
UniProt Q9BRR6: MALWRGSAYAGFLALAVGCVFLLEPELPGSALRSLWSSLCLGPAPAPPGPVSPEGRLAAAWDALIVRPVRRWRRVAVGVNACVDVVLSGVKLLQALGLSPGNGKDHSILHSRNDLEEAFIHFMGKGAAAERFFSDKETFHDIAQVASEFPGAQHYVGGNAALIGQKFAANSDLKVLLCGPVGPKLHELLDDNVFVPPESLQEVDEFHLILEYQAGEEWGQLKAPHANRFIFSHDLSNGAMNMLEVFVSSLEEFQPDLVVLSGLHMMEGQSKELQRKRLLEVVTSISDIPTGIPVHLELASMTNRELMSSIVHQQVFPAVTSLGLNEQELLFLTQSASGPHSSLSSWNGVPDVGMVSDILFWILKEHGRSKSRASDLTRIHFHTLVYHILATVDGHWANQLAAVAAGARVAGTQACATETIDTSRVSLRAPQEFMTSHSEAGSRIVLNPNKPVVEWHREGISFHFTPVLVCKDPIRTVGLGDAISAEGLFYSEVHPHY
UniProt O15120: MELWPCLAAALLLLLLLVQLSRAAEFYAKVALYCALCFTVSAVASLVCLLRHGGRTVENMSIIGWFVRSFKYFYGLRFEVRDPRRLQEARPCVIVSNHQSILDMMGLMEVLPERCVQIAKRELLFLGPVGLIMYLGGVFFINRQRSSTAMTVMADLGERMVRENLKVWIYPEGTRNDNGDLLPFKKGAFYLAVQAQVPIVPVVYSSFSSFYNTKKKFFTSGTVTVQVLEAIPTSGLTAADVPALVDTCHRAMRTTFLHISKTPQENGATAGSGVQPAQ
UniProt P05091: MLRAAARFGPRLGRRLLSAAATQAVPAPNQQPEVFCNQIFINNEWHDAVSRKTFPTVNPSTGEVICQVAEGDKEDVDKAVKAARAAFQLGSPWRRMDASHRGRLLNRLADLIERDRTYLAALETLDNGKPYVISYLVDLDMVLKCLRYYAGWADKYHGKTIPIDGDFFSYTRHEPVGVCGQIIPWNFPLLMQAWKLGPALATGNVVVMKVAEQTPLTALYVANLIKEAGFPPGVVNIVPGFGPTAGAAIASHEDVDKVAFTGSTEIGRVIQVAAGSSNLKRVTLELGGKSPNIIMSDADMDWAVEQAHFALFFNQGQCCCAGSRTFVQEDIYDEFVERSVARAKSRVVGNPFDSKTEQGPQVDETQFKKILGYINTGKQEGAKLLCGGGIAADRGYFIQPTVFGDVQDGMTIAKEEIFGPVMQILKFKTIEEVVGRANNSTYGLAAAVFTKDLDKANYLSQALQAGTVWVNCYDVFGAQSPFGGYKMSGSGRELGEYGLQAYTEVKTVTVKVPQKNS
UniProt Q12904: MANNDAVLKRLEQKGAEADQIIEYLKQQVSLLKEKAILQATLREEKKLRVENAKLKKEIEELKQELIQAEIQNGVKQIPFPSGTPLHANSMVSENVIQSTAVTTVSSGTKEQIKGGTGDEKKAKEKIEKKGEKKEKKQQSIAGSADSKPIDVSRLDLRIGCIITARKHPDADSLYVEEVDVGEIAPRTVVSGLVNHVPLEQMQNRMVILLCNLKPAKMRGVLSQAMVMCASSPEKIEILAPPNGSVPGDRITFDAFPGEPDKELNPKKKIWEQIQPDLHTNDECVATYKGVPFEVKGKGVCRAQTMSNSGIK
UniProt P30038: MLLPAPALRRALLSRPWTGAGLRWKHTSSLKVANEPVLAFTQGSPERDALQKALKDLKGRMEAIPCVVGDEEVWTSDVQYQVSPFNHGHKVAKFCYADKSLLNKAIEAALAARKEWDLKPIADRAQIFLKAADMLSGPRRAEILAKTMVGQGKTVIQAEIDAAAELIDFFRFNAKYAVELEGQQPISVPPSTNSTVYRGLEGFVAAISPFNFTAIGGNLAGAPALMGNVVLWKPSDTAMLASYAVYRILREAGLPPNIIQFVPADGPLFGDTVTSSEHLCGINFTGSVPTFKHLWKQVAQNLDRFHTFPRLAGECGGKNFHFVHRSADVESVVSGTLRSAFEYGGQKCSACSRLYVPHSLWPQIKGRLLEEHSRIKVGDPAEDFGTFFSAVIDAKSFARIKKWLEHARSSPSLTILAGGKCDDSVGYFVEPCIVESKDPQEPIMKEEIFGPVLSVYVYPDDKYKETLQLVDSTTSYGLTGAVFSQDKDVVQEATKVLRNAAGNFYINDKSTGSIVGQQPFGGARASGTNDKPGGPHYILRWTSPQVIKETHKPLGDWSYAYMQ
UniProt P02771: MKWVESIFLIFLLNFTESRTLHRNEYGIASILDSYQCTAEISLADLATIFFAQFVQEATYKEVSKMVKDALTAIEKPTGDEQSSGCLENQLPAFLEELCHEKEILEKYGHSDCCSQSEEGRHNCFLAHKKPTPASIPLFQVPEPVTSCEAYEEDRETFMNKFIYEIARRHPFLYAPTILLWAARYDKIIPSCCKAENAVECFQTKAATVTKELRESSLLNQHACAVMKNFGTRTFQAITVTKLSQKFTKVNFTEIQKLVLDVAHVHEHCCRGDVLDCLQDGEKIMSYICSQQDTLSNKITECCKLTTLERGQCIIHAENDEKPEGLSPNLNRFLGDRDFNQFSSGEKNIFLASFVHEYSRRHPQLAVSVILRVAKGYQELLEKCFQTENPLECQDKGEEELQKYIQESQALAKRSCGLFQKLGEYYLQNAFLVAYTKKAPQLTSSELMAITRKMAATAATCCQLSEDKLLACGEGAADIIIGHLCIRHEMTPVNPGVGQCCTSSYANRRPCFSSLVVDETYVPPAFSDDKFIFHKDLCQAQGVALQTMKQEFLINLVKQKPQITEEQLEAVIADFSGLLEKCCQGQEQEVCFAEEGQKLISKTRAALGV

What was measured:
Assay in all cases: log2 fold change, soluble protein after heating vs DMSO (PISA); higher = thermal stabilisation; K562 cells, 10 uM, 30 min; active = over 0.2 and 3.5 SD of the protein, either way, in both replicates (recomputed)
[1] = compound: C1COCCN1CCN2C3=CC=CC=C3N=C2NC(=O)C4=CC(=CC=C4)[N+](=O)[O-] [IRAK-1-4 Inhibitor I]
In short: (§1)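 K562 cells at 2×10^6 cells/mL were treated for 30 min with 10 μM compound, and aliquots were heated for 3 min over 48°C-58°C before pooling. Extraction used PBS with 0.5% NP-40 at 4°C, and soluble protein was the supernatant after 21,000xg for 90 min, measured by TMTpro 16plex LC-MS/MS with channel sums equalised. Thermal stability values, relative to control samples and from duplicates, are log2 fold changes.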

[2] = compound: C=CC(=O)N1CCC[C@@H](n2nc(-c3ccc(Oc4ccccc4)cc3)c3c(N)ncnc32)C1 [ibrutinib]
In short: as §1

[3] = compound: CC(=O)c1cnc2ccc(-c3cc(Cl)c(O)c(Cl)c3)nc2c1N[C@H]1CC[C@H](CN(C)C)CC1
In short: as §1

[4] = compound: CC(C)(C)Cn1c(N)nc2ccc(-c3[nH]c(C(C)(C)C)nc3-c3ccc(F)cc3)nc21 [ralimetinib]
In short: as §1

[5] = compound: CC(C)(O)CC(=O)NCCn1ccc2ncnc(Nc3ccc(Oc4cccc(C(F)(F)F)c4)c(Cl)c3)c21
In short: as §1

[6] = compound: CC(C)C1=C2N=C(C=C(N2N=C1)NCC3=CC=CC=C3)NCCCCCCN
In short: as §1

[7] = compound: CC(C)C[C@@H](C=O)NC(=O)[C@H](CC(C)C)NC(=O)[C@H](CC(C)C)NC(=O)OCc1ccccc1
In short: as §1

[8] = compound: CC(C)N(C[C@H]1O[C@@H](n2cnc3c(N)ncnc32)[C@H](O)[C@@H]1O)[C@H]1C[C@@H](CCc2nc3cc(C(C)(C)C)ccc3[nH]2)C1 [pinometostat]
In short: as §1

[9] = compound: CC1=C(C(CC(=O)N1)C2=CC=C(C=C2)C(F)(F)F)C(=O)NC3=C(C=C4C(=C3)C=NN4)F
In short: as §1

[10] = compound: CC1=C(C2=C(C=C1)C(=O)C3=CC=CC=C3N2CCCN)C
In short: as §1

[11] = compound: CC1=C(C=C(C=C1)NC(=O)C2=CC(=CC=C2)C(C)(C)C#N)NC3=CC4=C(C=C3)N=CN(C4=O)C
In short: as §1

[12] = compound: CC1=C(C=C(C=C1)NC(=O)C2=CC(=CC=C2)N(C)C)NC(=O)C3=CC=C(C=C3)O
In short: as §1

[13] = compound: CC1=CC=C(C=C1)SC2=C3C=C(SC3=CN=C2)C(=O)N
In short: as §1

[14] = compound: CC1=NC(=CC=C1)C2=C(N=C(N2)C(C)(C)C)C3=CC4=NC=CN=C4C=C3
In short: as §1

[15] = compound: CCCCN(Cc1ccc(C(=O)NO)cc1)C(=O)Nc1ccccc1 [Nexturastat A]
In short: as §1

[16] = compound: CCCS(=O)(=O)Nc1ccc(F)c(C(=O)c2c[nH]c3ncc(-c4ccc(Cl)cc4)cc23)c1F [vemurafenib]
In short: as §1

[17] = compound: CCCS(=O)(=O)Nc1ccc(F)c(C(=O)c2c[nH]c3ncc(Cl)cc23)c1F
In short: as §1

[18] = compound: CCCc1cc(C)[nH]c(=O)c1CNC(=O)c1cc(-c2ccnc(N3CCN(C)CC3)c2)cc2c1cnn2C(C)C
In short: as §1

[19] = compound: CCN(CC)Cc1ccc2cc(COC(=O)Nc3ccc(C(=O)NO)cc3)ccc2c1 [givinostat]
In short: as §1

[20] = compound: CCN(CCCOc1ccc2c(Nc3cc(CC(=O)Nc4cccc(F)c4)[nH]n3)ncnc2c1)CCOP(=O)(O)O [barasertib]
In short: as §1

Row | Target | log2 fold change [1] | log2 fold change [2] | log2 fold change [3] | log2 fold change [4] | log2 fold change [5] | log2 fold change [6] | log2 fold change [7] | log2 fold change [8] | log2 fold change [9] | log2 fold change [10] | log2 fold change [11] | log2 fold change [12] | log2 fold change [13] | log2 fold change [14] | log2 fold change [15] | log2 fold change [16] | log2 fold change [17] | log2 fold change [18] | log2 fold change [19] | log2 fold change [20]
1 | ANAPC10 (UniProt Q9UM13) | inactive: 0.039 | inactive: -0.01 | inactive: 0.004 | inactive: 0.057 | inactive: 0.045 | inactive: -0.074 | inactive: 0.022 | inactive: 0.001 | inactive: 0.047 | inactive: -0.083 | inactive: 0.024 | inactive: 0.02 | inactive: -0.052 | inactive: 0.082 | inactive: 0.158 | inactive: 0.057 | inactive: 0.036 | inactive: 0.013 | inactive: -0.039 | inactive: -0.023
2 | ALDH1A2 (UniProt O94788) | inactive: 0.044 | inactive: 0.101 | inactive: -0.003 | inactive: -0.008 | inactive: -0.019 | inactive: 0.036 | inactive: -0.023 | inactive: -0.032 | inactive: -0.016 | inactive: 0.033 | inactive: 0.021 | inactive: 0.014 | inactive: 0.011 | inactive: 0.018 | inactive: -0.076 | inactive: 0.011 | inactive: 0.001 | inactive: -0.04 | inactive: 0.003 | inactive: -0.005
3 | AHCYL2 (UniProt Q96HN2) | inactive: 0.008 | inactive: -0.028 | inactive: 0.165 | inactive: -0.085 | inactive: 0 | inactive: 0.101 | inactive: 0.013 | inactive: -0.013 | inactive: -0.013 | inactive: -0.014 | inactive: -0.038 | inactive: -0.017 | inactive: 0.047 | inactive: -0.02 | inactive: -0.025 | inactive: -0.048 | inactive: -0.014 | inactive: -0.018 | inactive: -0.024 | inactive: 0.007
4 | AGO4 (UniProt Q9HCK5) | inactive: -0.049 | inactive: 0.027 | inactive: -0.023 | inactive: -0.025 | inactive: 0.087 | inactive: 0.081 | inactive: 0.073 | inactive: 0.011 | inactive: -0.025 | inactive: 0.134 | inactive: 0.023 | inactive: 0.035 | inactive: -0.072 | inactive: 0.083 | inactive: 0.175 | inactive: 0.018 | inactive: -0.025 | inactive: -0.098 | inactive: -0.004 | inactive: -0.13
5 | ALYREF (UniProt Q86V81) | inactive: -0.123 | inactive: 0.019 | inactive: 0.145 | inactive: 0.096 | inactive: 0.168 | inactive: 0.216 | inactive: 0.089 | inactive: 0.205 | inactive: 0.039 | inactive: -0.236 | inactive: 0.026 | inactive: 0.003 | inactive: -0.163 | inactive: -0.159 | inactive: 0.178 | inactive: -0.051 | inactive: -0.188 | inactive: 0.126 | inactive: -0.001 | inactive: -0.167
6 | AKR1A1 (UniProt P14550) | inactive: 0 | inactive: -0.037 | inactive: -0.028 | inactive: -0.004 | inactive: -0.05 | inactive: 0.018 | inactive: 0.011 | inactive: -0.03 | inactive: -0.017 | inactive: 0.017 | inactive: -0.002 | inactive: -0.018 | inactive: -0.019 | inactive: 0.066 | inactive: -0.094 | inactive: 0.024 | inactive: 0.025 | inactive: 0.014 | inactive: -0.008 | inactive: 0.013
7 | AFTPH isoform 9 (UniProt Q6ULP2) | inactive: -0.026 | inactive: -0.004 | inactive: -0.115 | inactive: 0.004 | inactive: 0.025 | inactive: -0.073 | inactive: 0.01 | inactive: 0.082 | inactive: -0.049 | inactive: -0.023 | inactive: -0.071 | inactive: -0.009 | inactive: 0.003 | inactive: -0.035 | inactive: -0.011 | inactive: 0.032 | inactive: 0.009 | inactive: 0.036 | inactive: 0.05 | inactive: 0.052
8 | ADSS2 (UniProt P30520) | inactive: 0.006 | inactive: -0.008 | inactive: -0.059 | inactive: -0.038 | inactive: 0.001 | inactive: 0.044 | inactive: 0.001 | inactive: -0.053 | inactive: -0.011 | inactive: 0.015 | inactive: 0.037 | inactive: 0.001 | inactive: 0.011 | inactive: 0.025 | inactive: -0.117 | inactive: 0.012 | inactive: -0.014 | inactive: -0.046 | inactive: -0.027 | inactive: 0
9 | AHSA1 (UniProt O95433) | inactive: 0.002 | inactive: -0.043 | inactive: -0.007 | inactive: 0 | inactive: -0.022 | inactive: -0.038 | inactive: -0.008 | inactive: -0.045 | – | inactive: 0 | inactive: -0.014 | inactive: 0.006 | inactive: 0 | inactive: 0.062 | inactive: -0.019 | inactive: 0.029 | inactive: 0.036 | inactive: -0.024 | inactive: -0.015 | inactive: 0.027
10 | ADSS1 (UniProt Q8N142) | inactive: 0.035 | inactive: 0 | inactive: -0.053 | inactive: 0.041 | inactive: 0.018 | inactive: 0.088 | inactive: 0.052 | inactive: -0.043 | inactive: 0.017 | inactive: -0.076 | inactive: -0.006 | inactive: 0.014 | inactive: -0.002 | inactive: -0.049 | inactive: -0.081 | inactive: -0.118 | inactive: -0.017 | inactive: -0.025 | inactive: 0.01 | inactive: -0.018
11 | ADPGK (UniProt Q9BRR6) | inactive: 0.007 | inactive: -0.026 | inactive: -0.021 | inactive: -0.02 | inactive: 0.009 | inactive: 0.058 | inactive: -0.059 | inactive: -0.066 | inactive: 0.084 | inactive: 0.021 | inactive: 0.017 | inactive: 0.01 | inactive: -0.009 | inactive: 0.06 | inactive: 0.048 | inactive: -0.014 | inactive: -0.007 | inactive: -0.036 | inactive: -0.034 | inactive: 0
12 | AGPAT2 (UniProt O15120) | inactive: 0.162 | inactive: -0.071 | inactive: -0.097 | inactive: -0.059 | inactive: -0.048 | inactive: 0.053 | inactive: 0.05 | inactive: -0.073 | inactive: -0.033 | inactive: 0.087 | inactive: 0.029 | inactive: -0.022 | inactive: -0.068 | inactive: -0.091 | inactive: -0.103 | inactive: 0.066 | inactive: 0.001 | inactive: -0.057 | inactive: -0.074 | inactive: -0.076
13 | ALDH2 (UniProt P05091) | inactive: 0.005 | inactive: 0.002 | inactive: -0.005 | inactive: -0.086 | inactive: -0.037 | inactive: 0.018 | inactive: -0.032 | inactive: -0.034 | – | inactive: 0.063 | inactive: 0.089 | inactive: 0.03 | inactive: 0.039 | inactive: 0.029 | active: -0.264 | inactive: 0.044 | inactive: -0.011 | inactive: -0.012 | inactive: 0.016 | inactive: 0.003
14 | AIMP1 isoform 2 (UniProt Q12904) | inactive: -0.13 | inactive: 0.033 | inactive: 0.227 | inactive: 0.313 | inactive: 0 | inactive: -0.234 | inactive: 0.18 | inactive: 0.535 | inactive: 0.011 | inactive: -0.006 | inactive: 0.094 | inactive: 0.032 | inactive: 0 | inactive: -0.082 | inactive: 0.502 | inactive: -0.033 | inactive: 0.032 | inactive: 0.137 | inactive: 0.127 | inactive: -0.036
15 | ALDH4A1 (UniProt P30038) | inactive: 0.038 | inactive: 0.022 | inactive: -0.009 | inactive: 0.014 | inactive: -0.064 | inactive: -0.081 | inactive: 0.011 | inactive: -0.067 | inactive: -0.031 | inactive: 0.034 | inactive: 0.043 | inactive: 0.005 | inactive: -0.012 | inactive: 0.035 | inactive: -0.035 | inactive: 0.013 | inactive: 0.006 | inactive: -0.01 | inactive: -0.04 | inactive: 0.01
16 | AFP (UniProt P02771) | inactive: 0.007 | inactive: 0.268 | inactive: 0.21 | inactive: 0.011 | inactive: 0.245 | inactive: 0.175 | inactive: 0.08 | inactive: -0.239 | inactive: 0.075 | inactive: -0.331 | inactive: -0.095 | inactive: 0.702 | inactive: 0.624 | inactive: 0.087 | inactive: -0.089 | inactive: 0.135 | inactive: -0.186 | inactive: -0.262 | inactive: -0.187 | inactive: -0.142

2 entries picked at random from those above:
Row | Target | log2 fold change [1] | log2 fold change [2] | log2 fold change [3] | log2 fold change [4] | log2 fold change [5] | log2 fold change [6] | log2 fold change [7] | log2 fold change [8] | log2 fold change [9] | log2 fold change [10] | log2 fold change [11] | log2 fold change [12] | log2 fold change [13] | log2 fold change [14] | log2 fold change [15] | log2 fold change [16] | log2 fold change [17] | log2 fold change [18] | log2 fold change [19] | log2 fold change [20]
14 | AIMP1 isoform 2 (UniProt Q12904) | inactive: -0.13 | inactive: 0.033 | inactive: 0.227 | inactive: 0.313 | inactive: 0 | inactive: -0.234 | inactive: 0.18 | inactive: 0.535 | inactive: 0.011 | inactive: -0.006 | inactive: 0.094 | inactive: 0.032 | inactive: 0 | inactive: -0.082 | inactive: 0.502 | inactive: -0.033 | inactive: 0.032 | inactive: 0.137 | inactive: 0.127 | inactive: -0.036
2 | ALDH1A2 (UniProt O94788) | inactive: 0.044 | inactive: 0.101 | inactive: -0.003 | inactive: -0.008 | inactive: -0.019 | inactive: 0.036 | inactive: -0.023 | inactive: -0.032 | inactive: -0.016 | inactive: 0.033 | inactive: 0.021 | inactive: 0.014 | inactive: 0.011 | inactive: 0.018 | inactive: -0.076 | inactive: 0.011 | inactive: 0.001 | inactive: -0.04 | inactive: 0.003 | inactive: -0.005
